Assay results as given in patent US11802108B2, “Compounds for the modulation of cyclophilins function” (The University Court of The University of Edinburgh, priority 2018, dated 2023).
At least one compound was matched to its structure with a doubt left.

By UniProt entry, the sequences of proteins in these tests, tags left out.
UniProt P62937, whole entry: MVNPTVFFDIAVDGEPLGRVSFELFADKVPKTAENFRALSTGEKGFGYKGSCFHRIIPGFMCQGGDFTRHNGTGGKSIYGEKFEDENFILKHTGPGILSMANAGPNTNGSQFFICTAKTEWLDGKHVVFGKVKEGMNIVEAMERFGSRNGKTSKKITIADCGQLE

Target: CypA (Homo sapiens (Human), UniProt P62937)
Test: X-ray co-crystal structure with CypA; also: key: Y: observed in cocrystal; N: not observed in cocrystal
Assay type: binding
Conditions: apo CypA crystals soaked with 5 mM ligand
Procedure: Purified and his-tag-cleaved CypA was buffer-exchanged into PBS and concentrated to ˜29 mg ml^−1. For crystallisation 1 μL of protein was mixed with an equal volume of the well solution, consisting of 100 mM Tris-HCl pH8.0 and 20-22% v/v PEG 8000, and crystal formation came about after equilibration overnight in 6° C. by vapour diffusion using the hanging drop method over 1 mL of the same well solution. Apo CypA crystals were soaked overnight into different ligand solution consisting of 100 mM Tris-HCl pH 8.0, 35% w/v PEG 8000, 5% v/v Glycerol, 5% v/v DMSO and 5 mM ligand, before flash frozen into liquid nitrogen. X-ray data were collected at the Diamond synchrotron-radiation facility in Oxford-shire, England at 100K. Structures were solved by molecular replacement using DIMPLE from the CCP4i suite. Modelled structures were visualised and manually adjusted as needed using Coot10 and further refined using REFMAC5 from CCP4i.
FIG. 1A summarises the mode of binding of certain prior-art urea small molecule Cyp inhibitors.

CCOC(=O)CNC(=O)N(Cc1ccc(N)cc1)Cc1cn(CC(N)=O)nn1 [Compound 21, Ethyl 2-({[(4-aminophenyl)methyl][1-(carbamoylmethyl)-1H-1,2,3-triazol-4-yl]carbamoyl}amino)acetate]
CypA X-ray co-crystal: Y
